Data taken from patent publication US11712473B2, “Sensitizer-peptide conjugate” (UNIVERSITY OF ULSTER, priority 2017, dated 2023).

Assay: ROS generation on exposure to low intensity ultrasound, DPBF probe
Type: physicochemical
Conditions: 0.5 μM drug, 20 μM DPBF, EtOH:H2O 50:50, ultrasound 30 min, 1 MHz, 3.0 W/cm^2, 50% duty cycle; relative to controls
Protocol: The ability of the Rose Bengal-C(KLAKLAK)2 (SEQ ID NO. 2) conjugate to generate reactive oxygen species (ROS) upon exposure to low intensity ultrasound was determined using the chromogenic ROS probe 1,3-diphenylisobenzofuran (DPBF). DPBF has an intense absorbance band centred at 410 nm in its native furan form but is readily bleached by ROS to the corresponding di-ketone. This conversion to the di-ketone is accompanied by a loss in absorbance at 410 nm that can be used to determine the amount of ROS produced. An EtOH:H2O (50:50 v/v) (10 mL) solution was prepared containing Rose Bengal or Rose Bengal-C(KLAKLAK)2 (SEQ ID NO. 2) (0.5 μM) and 1,3-diphenylisobenzofuran (DPBF) (20 μM). The solutions were then irradiated for 30 min with ultrasound using a sonoporator (Sonidel SP 100 sonoporator; frequency 1 MHz, power density 3.0 W/cm^2, 50% duty cycle, pulse repetition frequency 100 Hz). Aliquots were taken every 5 minutes and the absorbance at 410 nm was recorded using a ultraviolet-visible spectrometer (Cary 50 ultraviolet-visible (UV-Vis) spectrometer). Control experiments in the absence of drug (i.e. DPBF+stimulus) were also performed for comparative purposes (n=3).

## O=C1OC2(c3cc(I)c(O)c(I)c3Oc3c2cc(I)c(O)c3I)c2c(Cl)c(Cl)c(Cl)c(Cl)c21 [Rose Bengal, 4,5,6,7-tetrachloro-2′,4′,5′,7′-tetraiodofluorescein]
  DPBF absorbance at 410 nm (ROS production): significant reduction in DPBF absorbance
